The supplement of paper PMC10849652
The other results are listed elsewhere or left out.

The chains behind the UniProt entries cited, without tags or fusion partners. Where a name states a change or a piece, a line headed by the entry shows the natural chain unless it says otherwise.
UniProt Q8WUY1: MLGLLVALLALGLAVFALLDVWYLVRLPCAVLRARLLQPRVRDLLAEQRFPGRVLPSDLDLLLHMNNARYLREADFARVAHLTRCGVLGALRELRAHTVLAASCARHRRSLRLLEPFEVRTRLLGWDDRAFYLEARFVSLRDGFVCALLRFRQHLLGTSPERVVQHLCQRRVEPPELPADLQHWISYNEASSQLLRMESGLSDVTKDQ
UniProt Q9Y3A6: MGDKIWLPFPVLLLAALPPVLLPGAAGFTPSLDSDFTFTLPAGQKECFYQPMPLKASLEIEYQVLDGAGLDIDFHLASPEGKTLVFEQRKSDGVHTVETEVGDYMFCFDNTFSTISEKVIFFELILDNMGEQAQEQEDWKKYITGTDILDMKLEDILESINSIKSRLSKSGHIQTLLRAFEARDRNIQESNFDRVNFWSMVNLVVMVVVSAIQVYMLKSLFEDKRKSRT
UniProt Q9BVK6: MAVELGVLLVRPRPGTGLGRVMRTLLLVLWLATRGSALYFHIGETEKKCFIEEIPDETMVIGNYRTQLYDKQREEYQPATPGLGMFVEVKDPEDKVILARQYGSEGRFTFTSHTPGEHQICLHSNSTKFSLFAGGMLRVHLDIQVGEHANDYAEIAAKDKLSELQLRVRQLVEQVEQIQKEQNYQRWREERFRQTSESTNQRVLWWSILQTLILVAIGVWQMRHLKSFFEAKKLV
UniProt O00142: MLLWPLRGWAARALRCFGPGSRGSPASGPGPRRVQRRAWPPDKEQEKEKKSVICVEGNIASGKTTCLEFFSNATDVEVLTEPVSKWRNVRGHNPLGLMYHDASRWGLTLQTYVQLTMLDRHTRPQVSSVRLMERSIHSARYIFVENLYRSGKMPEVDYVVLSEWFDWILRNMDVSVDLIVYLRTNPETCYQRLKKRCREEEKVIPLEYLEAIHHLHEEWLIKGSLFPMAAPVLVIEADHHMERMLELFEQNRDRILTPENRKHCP
UniProt Q5JTD0: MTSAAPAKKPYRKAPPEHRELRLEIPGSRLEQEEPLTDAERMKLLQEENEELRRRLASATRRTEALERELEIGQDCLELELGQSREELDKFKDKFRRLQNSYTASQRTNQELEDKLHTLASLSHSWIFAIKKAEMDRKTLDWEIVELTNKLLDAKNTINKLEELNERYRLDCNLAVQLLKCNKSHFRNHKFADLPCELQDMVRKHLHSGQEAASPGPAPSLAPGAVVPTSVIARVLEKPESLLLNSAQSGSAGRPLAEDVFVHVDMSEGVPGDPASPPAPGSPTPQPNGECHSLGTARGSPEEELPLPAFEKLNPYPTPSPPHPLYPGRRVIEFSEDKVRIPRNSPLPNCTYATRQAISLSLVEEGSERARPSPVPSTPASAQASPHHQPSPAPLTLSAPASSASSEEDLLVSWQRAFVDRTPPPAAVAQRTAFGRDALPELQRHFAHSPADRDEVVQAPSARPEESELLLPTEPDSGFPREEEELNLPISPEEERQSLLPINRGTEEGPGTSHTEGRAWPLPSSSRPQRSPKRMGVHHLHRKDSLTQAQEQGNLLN
UniProt Q9NUM4, whole entry, looked up: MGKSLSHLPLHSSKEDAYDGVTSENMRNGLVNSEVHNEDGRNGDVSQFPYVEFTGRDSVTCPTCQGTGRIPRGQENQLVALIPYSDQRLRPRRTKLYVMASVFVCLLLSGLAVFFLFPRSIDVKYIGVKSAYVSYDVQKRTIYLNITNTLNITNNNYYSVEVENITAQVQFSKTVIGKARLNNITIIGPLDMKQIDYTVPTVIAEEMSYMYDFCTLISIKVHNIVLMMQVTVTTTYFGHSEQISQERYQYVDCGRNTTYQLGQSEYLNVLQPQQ
UniProt Q86UB9: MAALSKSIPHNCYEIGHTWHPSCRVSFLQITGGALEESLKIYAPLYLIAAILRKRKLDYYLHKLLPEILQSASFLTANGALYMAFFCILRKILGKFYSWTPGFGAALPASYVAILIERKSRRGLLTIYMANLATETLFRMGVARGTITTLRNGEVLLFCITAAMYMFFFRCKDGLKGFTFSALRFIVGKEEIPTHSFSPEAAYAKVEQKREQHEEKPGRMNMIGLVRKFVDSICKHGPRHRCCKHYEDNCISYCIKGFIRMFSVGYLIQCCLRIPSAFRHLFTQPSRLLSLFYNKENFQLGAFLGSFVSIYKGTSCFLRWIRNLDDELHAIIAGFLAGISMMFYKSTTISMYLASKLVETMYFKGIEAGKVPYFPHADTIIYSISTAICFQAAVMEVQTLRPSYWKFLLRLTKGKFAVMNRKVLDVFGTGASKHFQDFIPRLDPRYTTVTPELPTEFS
UniProt Q9H5L6: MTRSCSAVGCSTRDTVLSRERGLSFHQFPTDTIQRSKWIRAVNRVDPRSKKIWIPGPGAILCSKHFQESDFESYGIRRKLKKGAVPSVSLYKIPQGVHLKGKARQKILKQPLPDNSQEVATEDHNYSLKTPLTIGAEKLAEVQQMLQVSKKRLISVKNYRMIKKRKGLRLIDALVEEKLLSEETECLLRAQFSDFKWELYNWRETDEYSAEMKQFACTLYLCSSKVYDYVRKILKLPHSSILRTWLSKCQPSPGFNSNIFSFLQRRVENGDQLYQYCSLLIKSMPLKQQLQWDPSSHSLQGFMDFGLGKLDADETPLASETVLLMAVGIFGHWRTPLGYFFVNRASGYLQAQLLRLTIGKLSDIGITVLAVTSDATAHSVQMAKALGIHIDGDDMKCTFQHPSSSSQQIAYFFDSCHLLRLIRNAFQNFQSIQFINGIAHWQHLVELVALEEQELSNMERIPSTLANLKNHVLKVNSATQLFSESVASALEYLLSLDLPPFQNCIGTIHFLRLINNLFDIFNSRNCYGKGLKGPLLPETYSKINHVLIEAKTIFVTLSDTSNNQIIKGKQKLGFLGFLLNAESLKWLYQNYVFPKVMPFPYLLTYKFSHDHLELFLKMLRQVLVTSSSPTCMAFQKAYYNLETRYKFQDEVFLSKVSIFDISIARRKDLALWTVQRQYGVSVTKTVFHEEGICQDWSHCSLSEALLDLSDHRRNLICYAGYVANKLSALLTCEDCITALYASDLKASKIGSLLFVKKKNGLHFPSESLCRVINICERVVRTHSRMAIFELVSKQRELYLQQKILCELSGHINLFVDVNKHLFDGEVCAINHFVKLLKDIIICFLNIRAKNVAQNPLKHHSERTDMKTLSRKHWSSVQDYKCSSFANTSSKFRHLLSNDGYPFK
UniProt Q96MV1: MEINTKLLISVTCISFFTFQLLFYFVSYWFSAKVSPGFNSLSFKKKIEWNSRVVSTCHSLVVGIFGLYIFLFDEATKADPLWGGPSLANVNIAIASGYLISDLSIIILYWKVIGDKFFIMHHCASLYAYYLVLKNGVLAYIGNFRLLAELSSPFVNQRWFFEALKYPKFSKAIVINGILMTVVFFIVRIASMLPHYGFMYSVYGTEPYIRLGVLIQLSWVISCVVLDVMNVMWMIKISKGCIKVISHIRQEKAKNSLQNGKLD
UniProt Q9HC07: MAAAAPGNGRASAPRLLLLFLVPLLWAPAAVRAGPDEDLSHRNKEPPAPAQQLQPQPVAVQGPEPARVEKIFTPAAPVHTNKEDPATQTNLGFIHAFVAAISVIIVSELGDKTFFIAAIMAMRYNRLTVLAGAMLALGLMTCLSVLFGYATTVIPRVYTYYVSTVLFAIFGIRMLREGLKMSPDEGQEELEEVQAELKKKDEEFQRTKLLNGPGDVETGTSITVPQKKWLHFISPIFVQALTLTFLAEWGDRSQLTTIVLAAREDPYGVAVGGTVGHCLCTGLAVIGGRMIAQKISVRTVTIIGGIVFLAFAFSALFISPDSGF
UniProt Q9NWX6: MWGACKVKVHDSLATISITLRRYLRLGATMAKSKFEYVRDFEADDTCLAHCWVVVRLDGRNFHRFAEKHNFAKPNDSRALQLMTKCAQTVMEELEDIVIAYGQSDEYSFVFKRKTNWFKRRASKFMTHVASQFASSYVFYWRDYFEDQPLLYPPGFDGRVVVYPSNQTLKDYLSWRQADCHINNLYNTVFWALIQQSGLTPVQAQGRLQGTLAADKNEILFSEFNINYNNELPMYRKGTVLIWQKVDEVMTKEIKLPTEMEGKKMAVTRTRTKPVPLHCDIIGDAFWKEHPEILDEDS
UniProt O60830: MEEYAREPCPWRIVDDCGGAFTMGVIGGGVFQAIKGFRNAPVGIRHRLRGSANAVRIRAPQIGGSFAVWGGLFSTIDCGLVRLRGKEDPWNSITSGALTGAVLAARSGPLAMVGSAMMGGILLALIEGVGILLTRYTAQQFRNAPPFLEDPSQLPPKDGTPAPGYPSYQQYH
UniProt Q9BV44: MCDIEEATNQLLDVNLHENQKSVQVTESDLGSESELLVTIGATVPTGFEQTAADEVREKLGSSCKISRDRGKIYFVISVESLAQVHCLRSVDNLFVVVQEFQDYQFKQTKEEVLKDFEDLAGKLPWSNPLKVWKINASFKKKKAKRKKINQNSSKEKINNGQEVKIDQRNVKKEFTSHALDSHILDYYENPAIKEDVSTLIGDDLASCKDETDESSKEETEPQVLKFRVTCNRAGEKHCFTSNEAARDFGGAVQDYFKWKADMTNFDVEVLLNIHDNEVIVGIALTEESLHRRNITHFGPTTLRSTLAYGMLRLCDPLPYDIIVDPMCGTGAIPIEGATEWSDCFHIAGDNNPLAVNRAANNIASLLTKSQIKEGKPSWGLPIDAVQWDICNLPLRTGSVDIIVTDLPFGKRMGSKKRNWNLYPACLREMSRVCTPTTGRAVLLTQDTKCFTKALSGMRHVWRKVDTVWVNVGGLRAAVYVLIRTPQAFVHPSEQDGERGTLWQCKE
UniProt Q969X1: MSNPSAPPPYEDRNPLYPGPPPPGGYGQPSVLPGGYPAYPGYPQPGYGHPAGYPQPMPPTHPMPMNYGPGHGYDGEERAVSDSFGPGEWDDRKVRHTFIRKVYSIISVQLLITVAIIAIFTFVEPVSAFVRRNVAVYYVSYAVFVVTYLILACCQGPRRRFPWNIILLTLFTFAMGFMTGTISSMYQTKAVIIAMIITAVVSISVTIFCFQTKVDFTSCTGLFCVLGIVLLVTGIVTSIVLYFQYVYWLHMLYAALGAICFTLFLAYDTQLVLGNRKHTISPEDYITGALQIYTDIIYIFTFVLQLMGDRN
UniProt Q9HD45: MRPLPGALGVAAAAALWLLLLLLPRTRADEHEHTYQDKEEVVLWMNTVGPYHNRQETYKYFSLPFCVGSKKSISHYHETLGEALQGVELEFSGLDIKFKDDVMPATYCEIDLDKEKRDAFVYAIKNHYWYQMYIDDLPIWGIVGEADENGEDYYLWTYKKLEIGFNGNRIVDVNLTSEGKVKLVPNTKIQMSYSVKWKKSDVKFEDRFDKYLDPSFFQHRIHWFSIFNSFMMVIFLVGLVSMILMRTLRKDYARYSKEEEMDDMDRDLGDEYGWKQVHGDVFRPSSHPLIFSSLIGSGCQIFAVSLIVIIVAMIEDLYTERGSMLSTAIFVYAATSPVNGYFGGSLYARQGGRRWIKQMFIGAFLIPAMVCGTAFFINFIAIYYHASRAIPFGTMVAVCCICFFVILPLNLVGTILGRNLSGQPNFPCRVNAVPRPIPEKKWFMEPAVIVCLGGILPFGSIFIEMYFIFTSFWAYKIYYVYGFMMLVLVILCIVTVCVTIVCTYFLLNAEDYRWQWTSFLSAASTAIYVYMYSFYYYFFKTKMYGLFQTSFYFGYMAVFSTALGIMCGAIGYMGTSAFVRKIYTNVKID

Tests used:
Assay in all cases: log2 fold change, soluble protein after heating vs DMSO (PISA); higher = thermal stabilisation; K562 lysate, 10 uM; active = over 0.2 and 3.5 SD of the protein, either way, in both replicates (recomputed)
[1] = compound: CCCS(=O)(=O)Nc1ccc(F)c(C(=O)c2c[nH]c3ncc(-c4ccc(Cl)cc4)cc23)c1F [vemurafenib]
How it was run: (§1)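 A 30 min treatment with 10 μM compound was applied to crude K562 extract at 1 mg/mL protein in PBS pH 7.4 with 1 mM MgCl2. Heating for 3 min spanned 48°C-58°C, after which aliquots were pooled, adjusted to 0.5% NP-40 at 4°C and spun at 21,000xg for 90 min. TMTpro 16plex LC-MS/MS of the supernatant, with channel sums equalised, gave values recorded as log-two fold change in thermal stability against solvent controls, from duplicates.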

[2] = compound: CCCS(=O)(=O)Nc1ccc(F)c(C(=O)c2c[nH]c3ncc(Cl)cc23)c1F
How it was run: as §1

[3] = compound: CCN(CCCOc1ccc2c(Nc3cc(CC(=O)Nc4cccc(F)c4)[nH]n3)ncnc2c1)CCOP(=O)(O)O [barasertib]
How it was run: as §1

[4] = compound: CC[C@@H]1C(=O)N(C)c2cnc(Nc3ccc(C(=O)NC4CCN(C)CC4)cc3OC)nc2N1C1CCCC1
How it was run: as §1

[5] = compound: CC[C@@H]1C(=O)N(C)c2cnc(Nc3ccc(C(=O)N[C@H]4CC[C@H](N5CCN(CC6CC6)CC5)CC4)cc3OC)nc2N1C(C)C [volasertib]
How it was run: as §1

[6] = compound: CCn1c(C(=O)N(C2CC2)C2CC2)cc2c3c(ncn3C)c(Nc3cc(C)n(C)n3)nc21
How it was run: as §1

[7] = compound: CCn1cc(-c2ccnc3[nH]c(-c4cccc(CN(C)C)c4)cc23)c(-c2ccc(NC(=O)N(C)C)cc2)n1
How it was run: as §1

[8] = compound: CN1CCC(CNc2ccc3ncc(-c4cccc(OC(F)(F)F)c4)n3n2)CC1
How it was run: as §1

[9] = compound: CN1CCN(CCOc2cc(OC3CCOCC3)c3c(Nc4c(Cl)ccc5c4OCO5)ncnc3c2)CC1 [saracatinib]
How it was run: as §1

[10] = compound: CN1CCN(c2nc(C3=C(c4c[nH]c5ccccc45)C(=O)NC3=O)c3ccccc3n2)CC1 [sotrastaurin]
How it was run: as §1

Measured: log2 fold change

THEM6 (UniProt Q8WUY1)
inactive: [1] 0.03 | [2] 0.007 | [3] -0.017 | [4] -0.038 | [5] -0.019 | [6] 0.015 | [7] 0.022 | [8] 0.038 | [9] -0.049 | [10] -0.044

TMED5 (UniProt Q9Y3A6)
inactive: [1] -0.045 | [2] -0.001 | [3] -0.012 | [4] 0.002 | [5] -0.01 | [6] -0.03 | [7] -0.016 | [8] 0.014 | [9] 0.019 | [10] -0.011

TMED9 (UniProt Q9BVK6)
inactive: [1] 0.02 | [2] 0.02 | [3] -0.021 | [4] 0.064 | [5] 0.025 | [6] 0.017 | [7] 0.015 | [8] 0.02 | [9] -0.037 | [10] 0.034

TK2 isoform 6 (UniProt O00142)
inactive: [1] -0.074 | [2] -0.053 | [3] 0.053 | [4] 0.07 | [5] 0.051 | [6] -0.153 | [7] 0.064 | [8] 0.013 | [9] 0.155 | [10] 0

TJAP1 (UniProt Q5JTD0)
inactive: [1] 0.002 | [2] 0.018 | [3] -0.017 | [4] 0.043 | [5] 0.043 | [6] -0.015 | [7] -0.048 | [8] 0.13 | [9] -0.029 | [10] 0.002

TMEM106B (UniProt Q9NUM4)
inactive: [1] -0.037 | [2] -0.036 | [3] 0.049 | [4] 0.028 | [5] 0.058 | [6] -0.017 | [7] 0.063 | [8] 0.051 | [9] 0.004 | [10] 0.007

TMEM135 (UniProt Q86UB9)
inactive: [1] 0.301 | [2] 0.026 | [3] 0.019 | [4] -0.051 | [5] 0.026 | [6] 0.024 | [7] 0.12 | [8] -0.118 | [9] -0.004 | [10] 0.023

THAP9 (UniProt Q9H5L6)
inactive: [1] 0.199 | [2] 0.07 | [3] 0.117 | [4] 0.309 | [5] 0.088 | [6] -0.401 | [8] 0.151 | [9] 0 | [10] 0.076
active: [7] -0.66

TLCD4 (UniProt Q96MV1)
inactive: [1] 0.017 | [2] 0.02 | [3] -0.003 | [4] 0.008 | [5] 0.011 | [6] 0.124 | [7] -0.166 | [8] 0.112 | [9] 0.045 | [10] 0.009

TMEM165 (UniProt Q9HC07)
inactive: [1] -0.013 | [2] 0.024 | [3] -0.065 | [4] 0.034 | [5] 0.017 | [6] -0.013 | [7] -0.07 | [8] 0.101 | [9] 0.032 | [10] 0

THG1L (UniProt Q9NWX6)
inactive: [1] 0.019 | [2] -0.005 | [3] -0.009 | [4] 0.024 | [5] -0.023 | [6] 0.018 | [7] 0.035 | [8] -0.027 | [9] 0.012 | [10] 0.014

TIMM17B (UniProt O60830)
inactive: [1] 0.055 | [2] -0.006 | [3] 0.015 | [4] 0.029 | [5] 0.053 | [6] 0.046 | [7] -0.01 | [8] 0.039 | [9] -0.032 | [10] -0.008

Reprinted at random: 2 entries already listed
THG1L (UniProt Q9NWX6)
inactive: [1] 0.019 | [2] -0.005 | [3] -0.009 | [4] 0.024 | [5] -0.023 | [6] 0.018 | [7] 0.035 | [8] -0.027 | [9] 0.012 | [10] 0.014

TLCD4 (UniProt Q96MV1)
inactive: [1] 0.017 | [2] 0.02 | [3] -0.003 | [4] 0.008 | [5] 0.011 | [6] 0.124 | [7] -0.166 | [8] 0.112 | [9] 0.045 | [10] 0.009

The list goes on:

THUMPD3 (UniProt Q9BV44)
inactive: [1] 0.01 | [2] 0.019 | [3] -0.012 | [4] 0.047 | [5] 0.032 | [6] -0.032 | [7] 0.022 | [8] 0.015 | [9] -0.014 | [10] -0.001

TMBIM1 (UniProt Q969X1)
inactive: [1] -0.022 | [2] 0.105 | [3] 0.031 | [4] -0.025 | [5] 0.044 | [6] 0.056 | [7] -0.071 | [8] 0.131 | [9] -0.064 | [10] 0.126

TM9SF3 (UniProt Q9HD45)
inactive: [1] -0.031 | [2] 0.009 | [3] 0.015 | [4] 0.064 | [5] -0.001 | [6] -0.018 | [7] 0.002 | [8] 0.052 | [9] -0.04 | [10] 0.012
